Data reported in patent US11759442B2, “Use of short chain fatty acids for the treatment and prevention of diseases and disorders” (Temple University-Of The Commonwealth System of Higher …, priority 2017, dated 2023).
For at least one compound, name, drawing or mass did not settle the structure.

Tested on: infectious uveitis
Assay: Butyrate treatment of a subject having infectious uveitis
Format: in vivo

CCCC(=O)O [butyrate]
inflammation after completion of butyrate therapy: significantly reduced inflammation
